Source: publication doi:10.1101/2024.04.29.591626
Results are given in words; binding and its absence hold for the method and conditions named. Binding seen in cells or lysates may run through a third protein. Some entries that bind do so weakly or less than the wild type.

Sequences of proteins named here, by UniProt entry; tags and fusion partners are left off.
UniProt P46013: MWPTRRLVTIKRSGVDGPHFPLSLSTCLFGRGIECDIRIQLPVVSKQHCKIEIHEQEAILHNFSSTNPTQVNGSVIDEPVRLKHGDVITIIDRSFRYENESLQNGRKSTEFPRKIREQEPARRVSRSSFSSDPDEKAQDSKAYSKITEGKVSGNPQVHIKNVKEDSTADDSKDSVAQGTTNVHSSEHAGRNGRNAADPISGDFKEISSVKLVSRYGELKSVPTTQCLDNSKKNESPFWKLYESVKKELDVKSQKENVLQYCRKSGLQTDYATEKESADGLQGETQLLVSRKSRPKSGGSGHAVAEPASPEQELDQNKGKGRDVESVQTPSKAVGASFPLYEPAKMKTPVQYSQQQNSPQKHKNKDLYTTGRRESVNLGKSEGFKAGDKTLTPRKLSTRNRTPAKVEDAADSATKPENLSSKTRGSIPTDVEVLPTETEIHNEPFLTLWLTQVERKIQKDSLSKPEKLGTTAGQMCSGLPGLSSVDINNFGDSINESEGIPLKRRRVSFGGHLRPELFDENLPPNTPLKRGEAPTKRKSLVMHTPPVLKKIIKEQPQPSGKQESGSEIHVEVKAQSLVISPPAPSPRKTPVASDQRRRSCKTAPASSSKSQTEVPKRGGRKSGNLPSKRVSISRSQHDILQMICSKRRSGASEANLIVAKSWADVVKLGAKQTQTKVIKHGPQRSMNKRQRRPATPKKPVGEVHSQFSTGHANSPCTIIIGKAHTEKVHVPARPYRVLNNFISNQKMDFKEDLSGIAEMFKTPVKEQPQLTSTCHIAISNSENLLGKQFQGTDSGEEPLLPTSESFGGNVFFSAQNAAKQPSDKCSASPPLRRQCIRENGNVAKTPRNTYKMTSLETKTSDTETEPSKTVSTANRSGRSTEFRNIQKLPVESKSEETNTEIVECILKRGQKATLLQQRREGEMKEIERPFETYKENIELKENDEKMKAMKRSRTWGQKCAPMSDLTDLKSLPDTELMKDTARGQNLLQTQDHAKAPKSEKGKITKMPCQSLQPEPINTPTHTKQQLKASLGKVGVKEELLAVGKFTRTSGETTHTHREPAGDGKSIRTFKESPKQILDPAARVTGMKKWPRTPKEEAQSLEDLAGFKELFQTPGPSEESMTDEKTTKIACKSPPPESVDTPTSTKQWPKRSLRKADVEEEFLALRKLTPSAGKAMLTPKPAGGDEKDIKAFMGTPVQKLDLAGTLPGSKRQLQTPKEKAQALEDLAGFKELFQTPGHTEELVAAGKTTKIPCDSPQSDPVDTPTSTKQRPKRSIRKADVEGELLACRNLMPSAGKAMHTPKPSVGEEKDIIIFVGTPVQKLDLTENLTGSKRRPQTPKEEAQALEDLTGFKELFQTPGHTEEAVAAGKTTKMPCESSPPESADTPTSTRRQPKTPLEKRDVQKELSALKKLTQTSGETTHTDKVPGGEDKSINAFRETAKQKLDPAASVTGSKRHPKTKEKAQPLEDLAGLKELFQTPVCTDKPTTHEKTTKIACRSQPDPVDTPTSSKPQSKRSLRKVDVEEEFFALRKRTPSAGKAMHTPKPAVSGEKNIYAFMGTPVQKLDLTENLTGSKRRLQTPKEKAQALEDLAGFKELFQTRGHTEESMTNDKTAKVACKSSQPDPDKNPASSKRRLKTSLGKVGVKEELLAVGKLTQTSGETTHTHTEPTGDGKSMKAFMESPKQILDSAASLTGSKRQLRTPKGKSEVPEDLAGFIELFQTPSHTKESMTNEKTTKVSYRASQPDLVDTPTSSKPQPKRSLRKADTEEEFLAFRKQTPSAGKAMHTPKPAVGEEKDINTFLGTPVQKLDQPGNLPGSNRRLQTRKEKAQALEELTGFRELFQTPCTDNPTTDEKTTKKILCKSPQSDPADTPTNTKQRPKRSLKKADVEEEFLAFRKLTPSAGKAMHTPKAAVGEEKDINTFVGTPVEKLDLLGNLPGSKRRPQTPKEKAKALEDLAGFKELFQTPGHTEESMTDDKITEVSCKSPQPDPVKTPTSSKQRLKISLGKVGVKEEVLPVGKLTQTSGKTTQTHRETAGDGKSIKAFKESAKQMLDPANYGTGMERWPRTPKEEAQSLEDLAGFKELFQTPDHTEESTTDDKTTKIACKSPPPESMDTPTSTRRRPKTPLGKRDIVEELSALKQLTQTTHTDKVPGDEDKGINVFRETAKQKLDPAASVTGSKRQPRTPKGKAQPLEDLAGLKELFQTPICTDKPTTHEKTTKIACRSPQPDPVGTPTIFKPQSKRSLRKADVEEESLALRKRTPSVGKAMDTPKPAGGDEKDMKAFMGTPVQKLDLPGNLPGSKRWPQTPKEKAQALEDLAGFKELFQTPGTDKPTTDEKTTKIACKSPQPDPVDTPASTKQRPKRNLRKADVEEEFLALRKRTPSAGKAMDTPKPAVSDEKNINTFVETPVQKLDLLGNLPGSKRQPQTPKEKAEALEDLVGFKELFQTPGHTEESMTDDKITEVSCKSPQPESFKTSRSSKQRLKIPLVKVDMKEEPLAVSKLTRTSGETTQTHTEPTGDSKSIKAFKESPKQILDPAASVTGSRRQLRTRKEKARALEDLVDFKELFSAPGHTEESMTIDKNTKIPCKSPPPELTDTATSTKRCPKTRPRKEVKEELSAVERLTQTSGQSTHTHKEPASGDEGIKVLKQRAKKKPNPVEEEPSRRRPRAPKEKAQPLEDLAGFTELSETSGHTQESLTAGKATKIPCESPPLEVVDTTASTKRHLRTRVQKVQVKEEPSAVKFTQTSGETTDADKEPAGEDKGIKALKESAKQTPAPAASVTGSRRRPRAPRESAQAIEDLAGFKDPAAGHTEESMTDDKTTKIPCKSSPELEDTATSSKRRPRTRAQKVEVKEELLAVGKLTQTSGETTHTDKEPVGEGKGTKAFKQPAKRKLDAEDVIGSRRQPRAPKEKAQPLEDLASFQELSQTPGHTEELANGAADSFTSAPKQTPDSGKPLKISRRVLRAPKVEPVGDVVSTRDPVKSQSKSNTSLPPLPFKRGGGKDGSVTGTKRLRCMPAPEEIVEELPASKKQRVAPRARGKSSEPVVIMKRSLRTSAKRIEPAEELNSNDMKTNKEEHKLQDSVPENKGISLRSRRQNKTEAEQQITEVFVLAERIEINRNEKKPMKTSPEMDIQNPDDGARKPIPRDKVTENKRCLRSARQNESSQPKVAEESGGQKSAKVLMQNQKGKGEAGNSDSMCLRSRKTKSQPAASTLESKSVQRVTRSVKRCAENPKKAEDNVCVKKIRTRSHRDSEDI

Molecular target: T1, CENP-B (human (endogenous in HCT116)) (UniProt P07199)
T1 sequence: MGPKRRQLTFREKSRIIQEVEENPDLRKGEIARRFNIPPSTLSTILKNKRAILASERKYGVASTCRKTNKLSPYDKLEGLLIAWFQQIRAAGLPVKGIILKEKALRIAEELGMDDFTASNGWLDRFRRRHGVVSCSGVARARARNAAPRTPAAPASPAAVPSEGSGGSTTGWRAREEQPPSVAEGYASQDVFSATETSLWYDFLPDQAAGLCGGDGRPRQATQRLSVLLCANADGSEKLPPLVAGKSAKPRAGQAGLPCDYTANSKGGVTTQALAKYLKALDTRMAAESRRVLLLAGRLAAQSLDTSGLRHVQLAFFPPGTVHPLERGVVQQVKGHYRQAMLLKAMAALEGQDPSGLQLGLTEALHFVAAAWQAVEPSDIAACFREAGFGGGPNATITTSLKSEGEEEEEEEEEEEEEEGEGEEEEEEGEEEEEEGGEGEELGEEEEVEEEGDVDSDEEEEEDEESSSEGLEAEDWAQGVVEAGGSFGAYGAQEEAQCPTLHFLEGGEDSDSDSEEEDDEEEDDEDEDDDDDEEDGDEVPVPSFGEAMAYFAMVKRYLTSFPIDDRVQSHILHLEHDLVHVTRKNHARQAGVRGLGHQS
Assay: proximity ligation

binding: binds
Substance: Ki-67-mAID-mClover (from UniProt P46013 1-3256)
